# Some of the results follow. Shown are side measurements of this screen, not its main read-out; they come without a call. The list favours compounds with an active or inconclusive main result. Words in brackets tell the shape of the fitted curve; partial curves, single points and poor fits give uncertain potencies.
# Experiment: qHTS Assay to Find Inhibitors of Chronic Active B-Cell Receptor Signaling
# Conditions: ABC-DLBCL IkBa-CBG/CBR reporter, luminescence ratio (green luciferase fused to IkBa over red control in TMD8 lymphoma cells), 4 h
# Method in brief: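 Cell line TMD8 (human ABC DLBCL), stably expressing tet-inducible CBG68-IkBa fusion and CBR; IMDM/0.5% FBS; cpd up to 46 uM; dox induction, 4 h, 37C/5% CO2; dual luminescence; green/red ratio; MG132 control.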
# [1] = measured here: CBR red luminescence, cell number
# [2] = measured here: IkBa-CBG green luminescence
Structure (SMILES),AC50 [1],AC50 [2]
O=C(O)CCN(CC(=O)c1ccc(Cl)cc1)S(=O)(=O)c1ccc([N+](=O)[O-])cc1,"18.4 µM [falling, single point]",–
COc1ccc(CNC(=O)OCCN2CCN(S(=O)(=O)c3ccc(C)cc3)CCC2=O)cc1,"3.66 µM [rising, partial curve]","5.17 µM [falling, partial curve, poor fit]"
CCCC(=O)Nc1ccc2c(c1)c1ccccc1n2CC,"32.6 µM [rising, partial curve, poor fit]",–
CCc1ccc(C(=O)Nc2cccc(-c3nn[nH]n3)c2)s1,"35.5 µM [falling, single point]",–
NNC(=O)c1ccc(COc2cccc3ccccc23)cc1,"2.59 µM [falling, partial curve, poor fit]",–
CC(=O)N(c1ccc(C)cc1)c1nc(C)cc(C)c1C#N,"1.26 µM [falling, partial curve, poor fit]",–
CCc1sc(C(=O)Nc2cccc(C(C)=O)c2)cc1C,"1.64 µM [rising, full curve]",–
CC(O)CN(Cc1cccc(Cl)c1)CC(C)O (stereo not drawn),"0.731 µM [rising, full curve, poor fit]",–
COc1ccc(C(=O)Nc2nnc(C3=COCCO3)o2)cc1,"5.62 µM [falling, partial curve]","5.62 µM [falling, single point]"
COc1ccc(NC(=O)c2cc(-c3ccccc3)oc2C)cc1,–,"0.184 µM [rising, full curve, poor fit]"
c1ccc(CN2c3ccccc3-c3nc4ccccc4n3C2c2ccccn2)cc1 (stereo not drawn),"10 µM [falling, partial curve, poor fit]","20 µM [rising, single point]"
Cc1ccc(N2CCN(C(=O)C3CCC(=O)N(Cc4ccc(Cl)cc4)C3)CC2)c(C)c1 (stereo not drawn),"15.8 µM [falling, single point]",–
O=C(Nc1scc(-c2ccccc2)c1C(=O)O)c1ccccc1F,"11.2 µM [falling, partial curve]",–
Nc1cccc(-c2nnc3n2CCCCC3)c1,"6.31 µM [falling, partial curve, poor fit]",–
O=C(COc1ccccc1[N+](=O)[O-])c1ccccc1,"31.6 µM [falling, partial curve, poor fit]",–
COc1cc(C(=O)Nc2nccs2)ccc1OCc1c(C)noc1C,"0.631 µM [falling, full curve]",–
O=C(CSc1nnc(-c2ccco2)o1)NC(=O)Cc1ccccc1,"29.1 µM [rising, single point]",–
COc1ccc(-c2nnc(SCC(=O)c3ccc(C)o3)o2)cc1,"8.2 µM [rising, partial curve, poor fit]",–
COC(=O)c1ccc(N/C=C/C(=O)c2ccc(OC)c(OC)c2)cc1,"1.26 µM [falling, full curve, poor fit]",–
CCc1ccc(-c2cc(C(=O)Nc3ccc(S(=O)(=O)NC(C)=O)cc3)c3ccccc3n2)cc1,"15.8 µM [falling, partial curve]",–
C/C=C/c1ccc(OCC(=O)NCc2ccccc2OC)c(OC)c1,"12.6 µM [rising, partial curve]",–
NC(=O)CC(NC(=O)Cc1cccc2ccccc12)c1ccc(NC2CC3CCC2C3)c([N+](=O)[O-])c1 (stereo not drawn),"2.82 µM [rising, partial curve]",–

# 2 entries from above, with tabs:
Structure (SMILES)	AC50 [1]	AC50 [2]
O=C(O)CCN(CC(=O)c1ccc(Cl)cc1)S(=O)(=O)c1ccc([N+](=O)[O-])cc1	18.4 µM [falling, single point]	–
O=C(Nc1scc(-c2ccccc2)c1C(=O)O)c1ccccc1F	11.2 µM [falling, partial curve]	–

# (more compounds)

Structure (SMILES),AC50 [1],AC50 [2]
O=C(c1cc2ccccc2oc1=O)N(Cc1ccc(F)cc1)C1CCS(=O)(=O)C1 (stereo not drawn),"11.2 µM [falling, partial curve]",–
Cc1cc(C(=O)NC(=S)Nc2ccccc2N2CCOCC2)ccc1[N+](=O)[O-],"0.366 µM [rising, full curve, poor fit]",–
Cc1cccc2sc(NC(=O)CSc3cn[nH]n3)nc12,"8.91 µM [falling, partial curve]",–
Cc1nc2ccccc2c(=O)n1/N=C/c1ccc([N+](=O)[O-])o1,"12.6 µM [falling, single point]",–
O=C(CCCN1C(=O)c2ccccc2C1=O)Nc1nnc(C2CC2)s1,"7.94 µM [rising, partial curve, poor fit]",–
O=C(Nc1cc(Cl)cc(Cl)c1)N1CCCN(Cc2ccccc2)CC1,"1.58 µM [falling, full curve, poor fit]",–
Cc1nc(N/N=C\c2ccc3c(c2)OCO3)sc1C,"11.2 µM [rising, partial curve]",–
COc1ccc(-n2c(C)c(C)c3c(NCCCO)ncnc32)cc1,"35.5 µM [falling, single point]",–
Cc1ccccc1C(=O)NNC(=S)NC(=O)c1cccnc1,"23.1 µM [falling, single point]",–
CCCc1cc(=O)n2[nH]c(-c3ccc(C)cc3)cc2n1,"8.91 µM [falling, partial curve]",–
N#Cc1nc(Cc2cccc3ccccc23)oc1NCc1ccc(F)cc1,"29.1 µM [falling, single point]",–
Fc1ccc(OCc2nc(-c3ccc(Br)o3)no2)c(F)c1,"1.78 µM [rising, full curve, poor fit]",–
CCOC(=O)c1c(-c2ccc(OC)c(OC)c2)csc1NC(=O)C1CCCO1 (stereo not drawn),"14.1 µM [falling, single point]",–
O=C(CSc1nnc(-c2ccccc2O)o1)N1CCCCC1,"35.5 µM [falling, single point]",–
COc1cc(OC)cc(C(=O)OCC(=O)NCc2ccco2)c1,"29.1 µM [rising, single point]",–
CC1=NN(c2nc(-c3ccc(C#N)cc3)cs2)C(=O)C1,"12.6 µM [rising, partial curve, poor fit]",–
O=C1C(Cl)=C(Nc2ccccc2O)C(=O)N1c1ccccc1,"0.112 µM [falling, full curve, poor fit]",–
O=C(/C=C/c1ccccc1)CC(O)(c1ccccc1)C(F)(F)C(F)F (stereo not drawn),"25.9 µM [falling, partial curve, poor fit]",–
Cc1cc(C)c(NC(=O)CNC(=O)COC(=O)C2=COCCO2)c(C)c1,"18.4 µM [rising, single point]",–
COc1ccccc1CN(C)C(=O)c1sccc1-c1ccccc1,"25.1 µM [falling, single point]",–
CCc1ccc(C(=O)CSc2n[nH]c(C)n2)cc1,"35.5 µM [falling, single point]",–
O=C(CNC(=O)c1ccc([N+](=O)[O-])cc1)c1ccccc1,"15.8 µM [falling, partial curve, poor fit]",–

Structure (SMILES),AC50 [1],AC50 [2]
CCOc1cc(N2CCOCC2)c(OCC)cc1NC(=O)COC(=O)[C@H](Cc1c[nH]c2ccccc12)NC(C)=O,"3.26 µM [rising, partial curve, poor fit]",–
C=CCNC(=S)N1CCc2c([nH]c3ccccc23)C1C (stereo not drawn),"12.6 µM [falling, partial curve]",–
CCOc1ccc(Nc2nc(CC(=O)OC)cc(=O)[nH]2)cc1,"29.1 µM [rising, single point]",–
COc1ccccc1/C=N\Nc1ccccc1[N+](=O)[O-],"7.08 µM [rising, partial curve, poor fit]",–
C=CCOc1ccc(S(C)(=O)=O)cc1,"35.5 µM [rising, single point]",–
COc1ccc(Nc2nc(Nc3ccc(OC)cc3)nc(-n3[nH]c(=O)c(C)c3C)n2)cc1,"3.98 µM [falling, full curve, poor fit]",–
COc1cccc(-c2c3c([nH]c(=O)c2C#N)CCc2cc(OC)ccc2-3)c1,"0.112 µM [rising, full curve, poor fit]",–
O=C(O)c1ccc(Nc2cnc3ccccc3n2)cc1,"0.447 µM [falling, full curve]",–
Cc1n[nH]c(C)c1CCc1nc2c3ccccc3nc(SCC(=O)Nc3ccc(F)cc3)n2n1,"0.112 µM [rising, full curve, poor fit]",–
COc1cc2c(cc1NC(=S)NC(=O)c1c(OC)cccc1OC)oc1ccccc12,"4.11 µM [rising, full curve]",–
O=C(CCc1ccccc1)Nc1cccnc1Cl,"2.82 µM [rising, single point]",–
CCc1cccc(CC)c1NC(=S)NCCc1ccc(O)c(O)c1,"12.6 µM [falling, partial curve]",–
Cc1cccc(C)c1OCc1n[nH]c(=S)n1-c1ccccc1,"35.5 µM [rising, single point]","35.5 µM [falling, single point]"
COc1ccc(C(=O)Nc2ccc(C)cn2)c(OC)c1,"1.03 µM [falling, full curve, poor fit]",–
COc1ccc(CN(C)C(=O)c2cnc(OC)cc2C(F)(F)F)c(OC)c1,"7.08 µM [falling, partial curve]",–
Cc1c(C(=O)NNC(=O)c2csc(N3CCOCC3)n2)cccc1[N+](=O)[O-],"16.4 µM [rising, single point]",–
CCN(CC)c1ccc(/C=N/OC(C)C(=O)Nc2ccc(C)cc2)cc1 (stereo not drawn),"14.6 µM [rising, partial curve, poor fit]",–
CN(C)S(=O)(=O)c1ccc(Cl)c(NC(=O)COC(=O)[C@@H]2CCCN2C(=O)c2cccs2)c1,"15.8 µM [rising, single point]",–
O=C(NC(=S)Nc1cc([N+](=O)[O-])ccc1Cl)c1ccccc1,"0.146 µM [falling, full curve, poor fit]",–
Cc1ccc(-c2nnn(CC(=O)N(CC3CCCO3)C(C(=O)NCC3CCCO3)c3ccc(F)cc3)n2)o1 (stereo not drawn),"6.51 µM [rising, partial curve]",–

# Reference: PubChem BioAssay AID493014 (National Center for Advancing Translational Sciences (NCATS), 2011)
